These results are taken from PMC10561728.

Amino acid sequences for entries named in this document (tags omitted).
UniProt P22366: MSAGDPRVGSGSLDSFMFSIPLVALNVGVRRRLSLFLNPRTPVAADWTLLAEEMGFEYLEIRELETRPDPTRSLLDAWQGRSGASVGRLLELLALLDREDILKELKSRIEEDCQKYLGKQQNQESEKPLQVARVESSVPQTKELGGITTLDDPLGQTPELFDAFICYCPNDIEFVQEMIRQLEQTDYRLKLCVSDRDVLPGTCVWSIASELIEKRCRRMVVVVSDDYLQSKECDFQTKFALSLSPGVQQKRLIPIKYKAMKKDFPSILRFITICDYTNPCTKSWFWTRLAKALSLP

No constants are given. Whether binding was seen depends on the method and setting. Binding seen in cells or lysates may run through a third protein. Some entries that bind do so weakly or less than the wild type.

In this experiment the target is T1, IL-33 receptor (ST2, suppression of tumorigenicity 2) (mouse (endogenous in mouse mTh2 cells)) (UniProt P14719).
T1 sequence: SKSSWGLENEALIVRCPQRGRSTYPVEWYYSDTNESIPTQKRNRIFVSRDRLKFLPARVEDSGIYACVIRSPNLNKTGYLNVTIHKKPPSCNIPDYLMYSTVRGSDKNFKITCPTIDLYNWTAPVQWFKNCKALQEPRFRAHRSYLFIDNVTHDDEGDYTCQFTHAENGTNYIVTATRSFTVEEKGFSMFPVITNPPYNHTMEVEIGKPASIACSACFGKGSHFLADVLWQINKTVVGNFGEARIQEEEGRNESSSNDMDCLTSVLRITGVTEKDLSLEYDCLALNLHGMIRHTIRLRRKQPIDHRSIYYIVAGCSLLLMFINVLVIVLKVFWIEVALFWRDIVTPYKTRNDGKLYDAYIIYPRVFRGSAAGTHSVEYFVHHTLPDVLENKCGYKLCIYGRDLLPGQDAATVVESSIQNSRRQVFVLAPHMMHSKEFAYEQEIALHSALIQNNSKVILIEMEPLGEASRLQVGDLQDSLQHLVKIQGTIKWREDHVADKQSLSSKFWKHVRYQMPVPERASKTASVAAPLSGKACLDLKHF
Kind of experiment: co-IP; lysates of in vitro-polarized mouse mTh2 cells treated with or without IL-33; Pierce IP Lysis Buffer (25 mM Tris-HCl pH 7.4, 150 mM NaCl, 1 mM EDTA, 1% NP-40, 5% glycerol); precipitated with 2 ug/mL anti-mouse ST2 antibody and Protein G magnetic beads; Western blot. For orientation: In western blotting, separated proteins are transferred to a membrane and probed.

For the molecule “myeloid differentiation primary response protein 8 (MYD88) (from UniProt P22366 1-296)”, the binding result is “binds”.

B1: Tumor necrosis factor receptor-associated factor 4 (TRAF4) (protein, UniProt Q61382 1-470)
chain: MPGFDYKFLEKPKRRLLCPLCGKPMREPVQVSTCGHRFCDTCLQEFLSEGVFKCPEDQLPLDYAKIYPDPELEVQVLGLAIRCIHSEEGCRWSGPLRHLQGHLNTCSFNVVPCPNRCPAKLSRRDLPAHLQHDCPKRRLKCEFCGCDFSGEAYESHEGVCPQESVYCENKCGARMMRRLLAQHATSECPKRTQPCAYCTKEFVYDTIQSHQYQCPRLPVPCPNQCGVGTVAREDLPTHLKDSCSTAFVLCPFKESGCKHRCPKLAMGRHVEESVKPHLAMMCALVSRQRQELQELRRELEELSIGSDGVLIWKIGSYGRRLQEAKAKPNLECFSPAFYTHKYGYKLQVSAFLNGNGSGEGTHLSIYIRVLPGAFDNLLEWPFARRVTFSLLDQSDPGLAKPQHVTETFHPDPNWKNFQKPGTWRGSLDESSLGFGYPKFISHQDIRKRNYVRDDAVFIRASVELPRKILS
B1: the binding entry is listed as “binds”.

B2: tumor necrosis factor (TNF) receptor-associated factor 6 (TRAF6) (protein, UniProt P70196 1-530)
chain: MSLLNCENSCGSSQSSSDCCAAMAASCSAAVKDDSVSGSASTGNLSSSFMEEIQGYDVEFDPPLESKYECPICLMALREAVQTPCGHRFCKACIIKSIRDAGHKCPVDNEILLENQLFPDNFAKREILSLTVKCPNKGCLQKMELRHLEDHQVHCEFALVNCPQCQRPFQKCQVNTHIIEDCPRRQVSCVNCAVSMAYEEKEIHDQSCPLANIICEYCGTILIREQMPNHYDLDCPTAPIPCTFSVFGCHEKMQRNHLARHLQENTQLHMRLLAQAVHNVNLALRPCDAASPSRGCRPEDPNYEETIKQLESRLVRQDHQIRELTAKMETQSMYVGELKRTIRTLEDKVAEMEAQQCNGIYIWKIGNFGMHLKSQEEERPVVIHSPGFYTGRPGYKLCMRLHLQLPTAQRCANYISLFVHTMQGEYDSHLPWPFQGTIRLTILDQSEALIRQNHEEVMDAKPELLAFQRPTIPRNPKGFGYVTFMHLEALRQGTFIKDDTLLVRCEVSTRFDMGGLRKEGFQPRSTDAGV
For B2, the binding result was “binds”.
